The chains are these.
B1: MLF2 (human) (protein, UniProt Q15773 1-248)
chain: MFRFMRDVEPEDPMFLMDPFAIHRQHMSRMLSGGFGYSPFLSITDGNMPGTRPASRRMQQAGAVSPFGMLGMSGGFMDMFGMMNDMIGNMEHMTAGGNCQTFSSSTVISYSNTGDGAPKVYQETSEMRSAPGGIRETRRTVRDSDSGLEQMSIGHHIRDRAHILQRSRNHRTGDQEERQDYINLDESEAAAFDDEWRRETSRFRQQRPLEFRRLESSGAGGRRAEGPPRLAIQGPEDSPSRQSRRYDW
B2: THRAP3 (human) (protein, UniProt Q9Y2W1 1-955)
chain: MSKTNKSKSGSRSSRSRSASRSRSRSFSKSRSRSRSLSRSRKRRLSSRSRSRSYSPAHNRERNHPRVYQNRDFRGHNRGYRRPYYFRGRNRGFYPWGQYNRGGYGNYRSNWQNYRQAYSPRRGRSRSRSPKRRSPSPRSRSHSRNSDKSSSDRSRRSSSSRSSSNHSRVESSKRKSAKEKKSSSKDSRPSQAAGDNQGDEAKEQTFSGGTSQDTKASESSKPWPDATYGTGSASRASAVSELSPRERSPALKSPLQSVVVRRRSPRPSPVPKPSPPLSSTSQMGSTLPSGAGYQSGTHQGQFDHGSGSLSPSKKSPVGKSPPSTGSTYGSSQKEESAASGGAAYTKRYLEEQKTENGKDKEQKQTNTDKEKIKEKGSFSDTGLGDGKMKSDSFAPKTDSEKPFRGSQSPKRYKLRDDFEKKMADFHKEEMDDQDKDKAKGRKESEFDDEPKFMSKVIGANKNQEEEKSGKWEGLVYAPPGKEKQRKTEELEEESFPERSKKEDRGKRSEGGHRGFVPEKNFRVTAYKAVQEKSSSPPPRKTSESRDKLGAKGDFPTGKSSFSITREAQVNVRMDSFDEDLARPSGLLAQERKLCRDLVHSNKKEQEFRSIFQHIQSAQSQRSPSELFAQHIVTIVHHVKEHHFGSSGMTLHERFTKYLKRGTEQEAAKNKKSPEIHRRIDISPSTFRKHGLAHDEMKSPREPGYKAEGKYKDDPVDLRLDIERRKKHKERDLKRGKSRESVDSRDSSHSRERSAEKTEKTHKGSKKQKKHRRARDRSRSSSSSSQSSHSYKAEEYTEETEEREESTTGFDKSRLGTKDFVGPSERGGGRARGTFQFRARGRGWGRGNYSGNNNNNSNNDFQKRNREEEWDPEYTPKSKKYYLHDDREGEGSDKWVSRGRGRGAFPRGRGRFMFRKSSTSPKWAHDKFSGEEGEIEDDESGTENREEKDNIQPTTE
B3: SNW1 (human) (protein, UniProt Q13573 1-536)
chain: MALTSFLPAPTQLSQDQLEAEEKARSQRSRQTSLVSSRREPPPYGYRKGWIPRLLEDFGDGGAFPEIHVAQYPLDMGRKKKMSNALAIQVDSEGKIKYDAIARQGQSKDKVIYSKYTDLVPKEVMNADDPDLQRPDEEAIKEITEKTRVALEKSVSQKVAAAMPVRAADKLAPAQYIRYTPSQQGVAFNSGAKQRVIRMVEMQKDPMEPPRFKINKKIPRGPPSPPAPVMHSPSRKMTVKEQQEWKIPPCISNWKNAKGYTIPLDKRLAADGRGLQTVHINENFAKLAEALYIADRKAREAVEMRAQVERKMAQKEKEKHEEKLREMAQKARERRAGIKTHVEKEDGEARERDEIRHDRRKERQHDRNLSRAAPDKRSKLQRNENRDISEVIALGVPNPRTSNEVQYDQRLFNQSKGMDSGFAGGEDEIYNVYDQAWRGGKDMAQSIYRPSKNLDKDMYGDDLEARIKTNRFVPDKEFSGSDRRQRGREGPVQFEEDPFGLDKFLEEAKQHGGSKRPSDSSRPKEHEHEGKKRRKE
B4: PRKRA (human) (protein, UniProt O75569 1-313)
chain: MSQSRHRAEAPPLEREDSGTFSLGKMITAKPGKTPIQVLHEYGMKTKNIPVYECERSDVQIHVPTFTFRVTVGDITCTGEGTSKKLAKHRAAEAAINILKANASICFAVPDPLMPDPSKQPKNQLNPIGSLQELAIHHGWRLPEYTLSQEGGPAHKREYTTICRLESFMETGKGASKKQAKRNAAEKFLAKFSNISPENHISLTNVVGHSLGCTWHSLRNSPGEKINLLKRSLLSIPNTDYIQLLSEIAKEQGFNITYLDIDELSANGQYQCLAELSTSPITVCHGSGISCGNAQSDAAHNALQYLKIIAERK
B5: MORC2 (human) (protein, UniProt Q9Y6X9 1-1032)
chain: MAFTNYSSLNRAQLTFEYLHTNSTTHEFLFGALAELVDNARDADATRIDIYAERREDLRGGFMLCFLDDGAGMDPSDAASVIQFGKSAKRTPESTQIGQYGNGLKSGSMRIGKDFILFTKKEDTMTCLFLSRTFHEEEGIDEVIVPLPTWNARTREPVTDNVEKFAIETELIYKYSPFRTEEEVMTQFMKIPGDSGTLVIIFNLKLMDNGEPELDIISNPRDIQMAETSPEGTKPERRSFRAYAAVLYIDPRMRIFIHGHKVQTKRLSCCLYKPRMYKYTSSRFKTRAEQEVKKAEHVARIAEEKAREAESKARTLEVRLGGDLTRDSRVMLRQVQNRAITLRREADVKKRIKEAKQRALKEPKELNFVFGVNIEHRDLDGMFIYNCSRLIKMYEKVGPQLEGGMACGGVVGVVDVPYLVLEPTHNKQDFADAKEYRHLLRAMGEHLAQYWKDIAIAQRGIIKFWDEFGYLSANWNQPPSSELRYKRRRAMEIPTTIQCDLCLKWRTLPFQLSSVEKDYPDTWVCSMNPDPEQDRCEASEQKQKVPLGTFRKDMKTQEEKQKQLTEKIRQQQEKLEALQKTTPIRSQADLKKLPLEVTTRPSTEEPVRRPQRPRSPPLPAVIRNAPSRPPSLPTPRPASQPRKAPVISSTPKLPALAAREEASTSRLLQPPEAPRKPANTLVKTASRPAPLVQQLSPSLLPNSKSPREVPSPKVIKTPVVKKTESPIKLSPATPSRKRSVAVSDEEEVEEEAERRKERCKRGRFVVKEEKKDSNELSDSAGEEDSADLKRAQKDKGLHVEVRVNREWYTGRVTAVEVGKHVVRWKVKFDYVPTDTTPRDRWVEKGSEDVRLMKPPSPEHQSLDTQQEGGEEEVGPVAQQAIAVAEPSTSECLRIEPDTTALSTNHETIDLLVQILRNCLRYFLPPSFPISKKQLSAMNSDELISFPLKEYFKQYEVGLQNLCNSYQSRADSRAKASEESLRTSERKLRETEEKLQKLRTNIVALLQKVQEDIDINTDDELDAYIEDLITKGD

Sequences of proteins named here, by UniProt entry; tags and fusion partners are left off. Residues count along the entry.
UniProt Q60899: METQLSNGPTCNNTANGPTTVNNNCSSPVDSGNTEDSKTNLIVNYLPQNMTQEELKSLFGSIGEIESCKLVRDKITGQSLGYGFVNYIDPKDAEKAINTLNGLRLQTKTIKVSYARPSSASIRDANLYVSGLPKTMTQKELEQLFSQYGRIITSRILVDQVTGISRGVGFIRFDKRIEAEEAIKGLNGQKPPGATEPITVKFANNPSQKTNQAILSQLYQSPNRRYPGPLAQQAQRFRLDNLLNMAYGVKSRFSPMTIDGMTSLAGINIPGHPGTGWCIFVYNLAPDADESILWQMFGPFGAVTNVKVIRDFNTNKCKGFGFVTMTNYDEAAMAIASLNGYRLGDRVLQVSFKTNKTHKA
UniProt Q9UN81: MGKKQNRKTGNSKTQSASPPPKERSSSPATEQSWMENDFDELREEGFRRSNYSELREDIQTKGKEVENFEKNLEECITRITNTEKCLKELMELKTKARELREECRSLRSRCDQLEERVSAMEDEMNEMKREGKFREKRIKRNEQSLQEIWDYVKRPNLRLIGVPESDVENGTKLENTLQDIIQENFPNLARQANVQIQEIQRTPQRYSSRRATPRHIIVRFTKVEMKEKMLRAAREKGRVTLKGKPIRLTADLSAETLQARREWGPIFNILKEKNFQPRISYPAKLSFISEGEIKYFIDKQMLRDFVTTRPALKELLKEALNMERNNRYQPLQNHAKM
UniProt Q7Z6R9: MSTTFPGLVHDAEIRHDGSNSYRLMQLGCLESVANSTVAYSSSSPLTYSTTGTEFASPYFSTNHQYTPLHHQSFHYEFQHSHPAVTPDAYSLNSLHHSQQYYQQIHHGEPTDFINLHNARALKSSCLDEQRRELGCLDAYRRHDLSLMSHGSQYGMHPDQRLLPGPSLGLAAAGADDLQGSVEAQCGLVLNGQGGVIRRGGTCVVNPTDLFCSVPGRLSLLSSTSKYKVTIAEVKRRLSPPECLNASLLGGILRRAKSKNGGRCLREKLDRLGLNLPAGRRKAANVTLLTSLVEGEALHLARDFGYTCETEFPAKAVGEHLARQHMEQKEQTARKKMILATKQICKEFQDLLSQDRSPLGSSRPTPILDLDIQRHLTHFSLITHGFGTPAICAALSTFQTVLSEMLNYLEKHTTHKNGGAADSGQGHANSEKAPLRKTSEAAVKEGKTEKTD
UniProt Q9HC52: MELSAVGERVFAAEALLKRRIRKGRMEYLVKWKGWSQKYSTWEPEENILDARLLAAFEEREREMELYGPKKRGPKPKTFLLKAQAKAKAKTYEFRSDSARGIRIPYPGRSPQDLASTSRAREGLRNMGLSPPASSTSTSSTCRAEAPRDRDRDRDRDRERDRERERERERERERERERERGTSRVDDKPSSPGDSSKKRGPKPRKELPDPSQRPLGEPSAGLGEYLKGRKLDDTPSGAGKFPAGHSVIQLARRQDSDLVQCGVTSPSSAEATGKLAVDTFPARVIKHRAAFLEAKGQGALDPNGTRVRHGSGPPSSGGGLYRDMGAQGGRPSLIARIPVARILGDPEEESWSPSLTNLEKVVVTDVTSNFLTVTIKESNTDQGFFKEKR
UniProt P02545, residues 1-646: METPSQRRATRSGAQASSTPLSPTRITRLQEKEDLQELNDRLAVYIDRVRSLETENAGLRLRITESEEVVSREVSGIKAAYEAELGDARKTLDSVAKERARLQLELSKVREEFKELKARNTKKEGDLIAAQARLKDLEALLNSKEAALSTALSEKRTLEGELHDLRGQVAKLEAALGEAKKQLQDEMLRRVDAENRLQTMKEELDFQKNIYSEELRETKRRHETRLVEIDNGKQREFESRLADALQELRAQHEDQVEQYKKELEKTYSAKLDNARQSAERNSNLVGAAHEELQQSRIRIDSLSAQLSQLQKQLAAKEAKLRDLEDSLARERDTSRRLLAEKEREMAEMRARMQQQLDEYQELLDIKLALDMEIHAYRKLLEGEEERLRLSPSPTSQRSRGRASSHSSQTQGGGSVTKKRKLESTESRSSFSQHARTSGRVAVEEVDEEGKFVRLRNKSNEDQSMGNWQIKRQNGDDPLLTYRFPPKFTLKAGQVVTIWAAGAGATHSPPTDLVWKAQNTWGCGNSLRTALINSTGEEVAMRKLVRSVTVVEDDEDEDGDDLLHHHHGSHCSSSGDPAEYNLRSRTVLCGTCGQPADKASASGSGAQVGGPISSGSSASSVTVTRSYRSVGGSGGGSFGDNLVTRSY
UniProt P12956: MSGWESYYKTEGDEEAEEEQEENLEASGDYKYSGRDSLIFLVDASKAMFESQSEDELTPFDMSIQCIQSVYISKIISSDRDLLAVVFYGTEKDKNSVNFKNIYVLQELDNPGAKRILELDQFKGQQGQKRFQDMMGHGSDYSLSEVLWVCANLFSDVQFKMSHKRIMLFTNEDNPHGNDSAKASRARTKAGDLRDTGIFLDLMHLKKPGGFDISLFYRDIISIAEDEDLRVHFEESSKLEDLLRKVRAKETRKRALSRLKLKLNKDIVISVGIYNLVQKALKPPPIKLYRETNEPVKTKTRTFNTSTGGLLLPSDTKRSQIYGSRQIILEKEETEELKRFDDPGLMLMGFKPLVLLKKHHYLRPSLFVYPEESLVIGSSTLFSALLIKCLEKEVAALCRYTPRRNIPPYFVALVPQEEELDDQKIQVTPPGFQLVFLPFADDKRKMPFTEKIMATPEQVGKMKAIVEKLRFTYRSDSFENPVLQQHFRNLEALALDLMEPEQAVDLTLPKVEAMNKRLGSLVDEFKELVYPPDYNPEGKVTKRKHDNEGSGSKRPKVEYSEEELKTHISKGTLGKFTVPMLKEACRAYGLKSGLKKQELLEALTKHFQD
UniProt Q14839: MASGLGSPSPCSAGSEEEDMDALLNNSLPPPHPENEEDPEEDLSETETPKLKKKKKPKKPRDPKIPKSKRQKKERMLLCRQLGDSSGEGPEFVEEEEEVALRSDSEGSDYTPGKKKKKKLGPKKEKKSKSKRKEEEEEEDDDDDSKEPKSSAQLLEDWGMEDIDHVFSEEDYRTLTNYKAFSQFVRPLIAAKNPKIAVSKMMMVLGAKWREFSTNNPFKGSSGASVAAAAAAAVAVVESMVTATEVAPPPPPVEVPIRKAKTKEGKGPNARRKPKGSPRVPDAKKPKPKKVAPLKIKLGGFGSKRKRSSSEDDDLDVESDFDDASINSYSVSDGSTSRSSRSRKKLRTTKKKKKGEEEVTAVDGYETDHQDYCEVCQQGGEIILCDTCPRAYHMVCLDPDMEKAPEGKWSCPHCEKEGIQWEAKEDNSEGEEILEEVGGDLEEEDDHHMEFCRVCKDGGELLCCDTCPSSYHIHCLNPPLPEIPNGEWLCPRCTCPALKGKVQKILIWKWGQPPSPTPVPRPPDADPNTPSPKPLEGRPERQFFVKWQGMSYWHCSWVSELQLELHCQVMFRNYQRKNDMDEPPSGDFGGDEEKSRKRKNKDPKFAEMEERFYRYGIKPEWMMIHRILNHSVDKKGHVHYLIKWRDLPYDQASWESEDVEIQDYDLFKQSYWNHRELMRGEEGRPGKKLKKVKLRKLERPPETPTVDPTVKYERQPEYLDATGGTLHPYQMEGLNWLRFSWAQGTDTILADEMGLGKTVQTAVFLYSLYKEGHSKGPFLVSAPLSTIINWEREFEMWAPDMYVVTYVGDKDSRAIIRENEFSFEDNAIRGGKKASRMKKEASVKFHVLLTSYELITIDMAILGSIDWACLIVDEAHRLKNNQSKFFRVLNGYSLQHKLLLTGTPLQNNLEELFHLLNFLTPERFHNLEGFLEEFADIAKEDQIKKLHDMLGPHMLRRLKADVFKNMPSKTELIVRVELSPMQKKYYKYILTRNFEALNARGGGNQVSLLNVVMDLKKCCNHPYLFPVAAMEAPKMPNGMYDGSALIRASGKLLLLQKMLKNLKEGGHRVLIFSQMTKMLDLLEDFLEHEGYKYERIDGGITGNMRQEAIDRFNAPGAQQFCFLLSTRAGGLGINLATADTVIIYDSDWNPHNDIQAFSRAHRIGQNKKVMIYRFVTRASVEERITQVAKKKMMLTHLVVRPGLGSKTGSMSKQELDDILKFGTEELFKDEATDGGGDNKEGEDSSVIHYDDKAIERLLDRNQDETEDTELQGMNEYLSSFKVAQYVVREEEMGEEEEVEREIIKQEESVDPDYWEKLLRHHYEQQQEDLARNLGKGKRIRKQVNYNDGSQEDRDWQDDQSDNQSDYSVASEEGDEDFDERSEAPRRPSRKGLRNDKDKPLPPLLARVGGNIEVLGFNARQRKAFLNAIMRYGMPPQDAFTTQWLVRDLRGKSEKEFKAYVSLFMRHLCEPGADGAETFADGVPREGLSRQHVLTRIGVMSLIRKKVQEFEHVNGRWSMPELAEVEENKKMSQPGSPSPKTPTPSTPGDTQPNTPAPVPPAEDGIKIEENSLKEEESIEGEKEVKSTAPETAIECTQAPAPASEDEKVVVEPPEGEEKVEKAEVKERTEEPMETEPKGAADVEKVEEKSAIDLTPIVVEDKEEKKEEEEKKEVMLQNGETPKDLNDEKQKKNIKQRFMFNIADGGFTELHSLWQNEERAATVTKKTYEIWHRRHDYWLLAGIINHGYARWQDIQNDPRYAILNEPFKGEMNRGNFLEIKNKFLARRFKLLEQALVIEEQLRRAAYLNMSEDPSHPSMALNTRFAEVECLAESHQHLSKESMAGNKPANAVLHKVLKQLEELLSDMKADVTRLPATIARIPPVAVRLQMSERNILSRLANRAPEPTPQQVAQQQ
UniProt P49790: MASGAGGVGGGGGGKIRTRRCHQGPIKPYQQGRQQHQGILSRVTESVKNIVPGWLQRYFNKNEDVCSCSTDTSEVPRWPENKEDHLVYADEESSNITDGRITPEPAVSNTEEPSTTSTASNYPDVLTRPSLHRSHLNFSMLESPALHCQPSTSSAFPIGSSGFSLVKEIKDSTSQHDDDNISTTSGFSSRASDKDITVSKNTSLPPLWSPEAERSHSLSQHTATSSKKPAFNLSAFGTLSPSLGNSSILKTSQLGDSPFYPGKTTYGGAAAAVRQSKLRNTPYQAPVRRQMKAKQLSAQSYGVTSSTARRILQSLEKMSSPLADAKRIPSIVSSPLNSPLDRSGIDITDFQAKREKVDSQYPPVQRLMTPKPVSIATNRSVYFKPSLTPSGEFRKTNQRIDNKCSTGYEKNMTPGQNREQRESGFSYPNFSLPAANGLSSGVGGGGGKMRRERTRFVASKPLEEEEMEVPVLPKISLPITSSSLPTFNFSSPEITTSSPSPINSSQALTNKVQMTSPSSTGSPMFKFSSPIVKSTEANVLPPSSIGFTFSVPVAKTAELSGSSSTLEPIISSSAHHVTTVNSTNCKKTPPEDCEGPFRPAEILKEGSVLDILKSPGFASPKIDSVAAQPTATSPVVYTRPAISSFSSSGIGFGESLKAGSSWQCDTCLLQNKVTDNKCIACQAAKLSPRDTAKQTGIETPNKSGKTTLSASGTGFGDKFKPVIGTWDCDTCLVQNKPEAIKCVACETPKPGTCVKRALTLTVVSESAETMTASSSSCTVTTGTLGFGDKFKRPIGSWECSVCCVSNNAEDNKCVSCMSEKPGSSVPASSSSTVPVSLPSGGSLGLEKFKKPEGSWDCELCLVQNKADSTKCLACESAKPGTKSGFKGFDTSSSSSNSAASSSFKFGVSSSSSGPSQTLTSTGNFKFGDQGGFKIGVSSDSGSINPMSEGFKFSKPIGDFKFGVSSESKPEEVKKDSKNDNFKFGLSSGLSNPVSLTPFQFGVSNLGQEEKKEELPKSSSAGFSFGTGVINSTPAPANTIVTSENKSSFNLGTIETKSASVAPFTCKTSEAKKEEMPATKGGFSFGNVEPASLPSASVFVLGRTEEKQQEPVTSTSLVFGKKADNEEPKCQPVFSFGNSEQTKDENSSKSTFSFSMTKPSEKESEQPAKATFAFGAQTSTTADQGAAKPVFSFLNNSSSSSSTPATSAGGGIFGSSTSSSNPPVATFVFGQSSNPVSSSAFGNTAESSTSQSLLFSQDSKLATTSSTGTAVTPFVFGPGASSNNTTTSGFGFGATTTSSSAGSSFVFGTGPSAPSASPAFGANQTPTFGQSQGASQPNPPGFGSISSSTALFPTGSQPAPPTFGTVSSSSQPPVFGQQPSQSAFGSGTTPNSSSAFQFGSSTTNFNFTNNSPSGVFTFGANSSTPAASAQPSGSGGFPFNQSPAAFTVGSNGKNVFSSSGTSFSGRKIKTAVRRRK
UniProt O75367: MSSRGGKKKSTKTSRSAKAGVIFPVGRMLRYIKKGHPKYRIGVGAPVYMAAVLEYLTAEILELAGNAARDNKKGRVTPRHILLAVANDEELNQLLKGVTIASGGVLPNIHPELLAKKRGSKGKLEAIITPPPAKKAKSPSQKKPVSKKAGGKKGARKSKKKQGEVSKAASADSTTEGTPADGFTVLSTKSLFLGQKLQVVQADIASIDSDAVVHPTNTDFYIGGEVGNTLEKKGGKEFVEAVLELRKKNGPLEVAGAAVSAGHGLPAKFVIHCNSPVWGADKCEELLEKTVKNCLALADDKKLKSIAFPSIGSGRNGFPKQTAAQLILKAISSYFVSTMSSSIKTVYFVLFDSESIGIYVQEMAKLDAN

These are yes or no findings as the source states them, for the method shown. In cells and extracts the contact can be indirect. Here binding means that the protein was enriched with, or labelled near, the bait; the list need not be complete.

One experiment deals with LINE-1 ORF1p (mouse) (mouse (endogenous in MN9D)) (UniProt P11260). As to the kind of experiment: affinity purification with mass spectrometry; IP of endogenous ORF1p with antibody-coupled Dynabeads from sonicated lysate of differentiated MN9D neurons (day 10), against rabbit IgG, n = 5 IPs; 10 mM Tris HCl pH 8, 150 mM NaCl, overnight 4°C; on-bead digest, LC-MS/MS (DIA), label-free quantification; ratio ≥2, P ≤0.05.
“IGF2BP3 (mouse) (from UniProt Q9CPN8 1-579)”: the binding result is “binds”.

“ELAVL2 (mouse) (from UniProt Q60899 1-360)”: the binding result was “binds”.

As to “RCOR2 (corepressor 2 of REST) (mouse) (from UniProt Q8C796 1-523)”, the binding result is “binds”.

On to “FXR1 (mouse) (from UniProt Q61584 1-677)”, for which the binding result is listed as “binds”.

As to “ARID1B (mouse) (from UniProt E9Q4N7 1-2306)”, the binding entry is “binds”.

With “ZFHX3 (mouse) (from UniProt Q61329 1-3726)”, the binding entry is on record as “binds”.

On to “KHDRBS1 (mouse) (from UniProt Q60749 1-443)”, for which the binding result is recorded as “binds”.

Consider “CLASP1 (mouse) (from UniProt Q80TV8 1-1535)”, for which the binding entry is recorded as “binds”.

For the molecule “MAP6 (mouse) (from UniProt Q7TSJ2 1-906)”, the binding result was “binds”.

A further experiment concerns the target LINE-1 ORF1p (human) (human (endogenous in LUHMES)) (UniProt Q9UN81). As to the kind of experiment: affinity purification with mass spectrometry; IP of endogenous ORF1p with antibody-coupled Dynabeads from sonicated lysate of differentiated LUHMES neurons (day 5), against rabbit IgG, n = 5 IPs; 10 mM Tris HCl pH 8, 150 mM NaCl, overnight 4°C; on-bead digest, LC-MS/MS (DDA), label-free quantification; fold change ≥2, P ≤0.05.
For “BCLAF1 (human) (from UniProt Q9NYF8 1-920)”, the binding entry was “binds”.

On to “TOP2B (human) (from UniProt Q02880 1-1626)”, for which the binding result is “binds”.

For the molecule “TFAP2D (human) (from UniProt Q7Z6R9 1-452)”, the binding entry is listed as “binds”.

For the molecule “CBX8 (human) (from UniProt Q9HC52 1-389)”, the binding entry is reported as “binds”.

Turning to “GSN (human) (from UniProt P06396 28-782)”, the binding entry was “binds”.

“ATXN2 (human) (from UniProt Q99700 1-1313)”: the binding result is on record as “binds”.

Regarding “LMNA (human) (from UniProt P02545 1-646)”, the binding entry is reported as “binds”.

As to “TP53BP1 (human) (from UniProt Q12888 1-1972)”, the binding entry is “binds”.

Take “PSIP1 (human) (from UniProt O75475 1-530)”: the binding entry was “binds”.

For the molecule “PAWR (human) (from UniProt Q96IZ0 1-340)”, the binding entry is listed as “binds”.

As to “FXR1 (human) (from UniProt P51114 1-621)”, the binding result is on record as “binds”.

With “XRCC6 (Ku70) (human) (from UniProt P12956 1-609)”, the binding result is on record as “binds”.

In the case of “MYH9 (human) (from UniProt P35579 1-1960)”, the binding result is reported as “binds”.

For the molecule “CHD4 (human) (from UniProt Q14839 1-1912)”, the binding entry was “binds”.

With “RANBP2 (human) (from UniProt P49792 1-3224)”, the binding entry was “binds”.

As for “CTNNB1 (human) (from UniProt P35222 1-781)”, the binding entry was “binds”.

With “MAP6 (human) (from UniProt Q96JE9 1-813)”, the binding entry is listed as “binds”.

In the case of “NUP153 (human) (from UniProt P49790 1-1475)”, the binding entry is on record as “binds”.

Regarding “ZC3H11A (human) (from UniProt O75152 1-810)”, the binding entry was “binds”.

With “FXR2 (human) (from UniProt P51116 1-673)”, the binding result is reported as “binds”.

For the molecule “RCOR2 (corepressor 2 of REST) (human) (from UniProt Q8IZ40 1-523)”, the binding entry is recorded as “binds”.

For the molecule “SUPT16H (human) (from UniProt Q9Y5B9 1-1047)”, the binding result is on record as “binds”.

As to “DPF2 (human) (from UniProt Q92785 1-391)”, the binding entry was “binds”.

With “CLASP1 (human) (from UniProt Q7Z460 1-1538)”, the binding entry is given as “binds”.

With “NUMA1 (human) (from UniProt Q14980 1-2115)”, the binding result is listed as “binds”.

In the case of “IGF2BP3 (human) (from UniProt O00425 1-579)”, the binding entry is listed as “binds”.

Regarding LBR (human) (from UniProt Q14739 1-615), the binding entry is reported as “binds”.

For “MACROH2A2 (human) (from UniProt Q9P0M6 1-372)”, the binding result is on record as “binds”.

As for “MAP1B (human) (from UniProt P46821 1-2468)”, the binding result is reported as “binds”.

For “UBAP2L (human) (from UniProt Q14157 1-1087)”, the binding result was “binds”.

Regarding “MACROH2A1 (human) (from UniProt O75367 1-369)”, the binding entry is “binds”.

As for “SMARCA4 (human) (from UniProt P51532 1-1647)”, the binding result is “binds”.

For B1, the binding entry was “binds”.

Regarding B2, the binding result is “binds”.

B3: the binding result is reported as “binds”.

Take B4: the binding entry was “binds”.

In the case of B5, the binding result is “binds”.

(Values after article PMC13498733.)
